Experimental data reported in publication doi:10.1101/2025.11.28.691009.
No constants are given. Whether binding was seen depends on the method and setting. In cells and extracts the contact can be indirect. Here binding means that the protein was enriched with, or labelled near, the bait; the list need not be complete.

The chains behind the UniProt entries cited, without tags or fusion partners.
UniProt Q9JIM3: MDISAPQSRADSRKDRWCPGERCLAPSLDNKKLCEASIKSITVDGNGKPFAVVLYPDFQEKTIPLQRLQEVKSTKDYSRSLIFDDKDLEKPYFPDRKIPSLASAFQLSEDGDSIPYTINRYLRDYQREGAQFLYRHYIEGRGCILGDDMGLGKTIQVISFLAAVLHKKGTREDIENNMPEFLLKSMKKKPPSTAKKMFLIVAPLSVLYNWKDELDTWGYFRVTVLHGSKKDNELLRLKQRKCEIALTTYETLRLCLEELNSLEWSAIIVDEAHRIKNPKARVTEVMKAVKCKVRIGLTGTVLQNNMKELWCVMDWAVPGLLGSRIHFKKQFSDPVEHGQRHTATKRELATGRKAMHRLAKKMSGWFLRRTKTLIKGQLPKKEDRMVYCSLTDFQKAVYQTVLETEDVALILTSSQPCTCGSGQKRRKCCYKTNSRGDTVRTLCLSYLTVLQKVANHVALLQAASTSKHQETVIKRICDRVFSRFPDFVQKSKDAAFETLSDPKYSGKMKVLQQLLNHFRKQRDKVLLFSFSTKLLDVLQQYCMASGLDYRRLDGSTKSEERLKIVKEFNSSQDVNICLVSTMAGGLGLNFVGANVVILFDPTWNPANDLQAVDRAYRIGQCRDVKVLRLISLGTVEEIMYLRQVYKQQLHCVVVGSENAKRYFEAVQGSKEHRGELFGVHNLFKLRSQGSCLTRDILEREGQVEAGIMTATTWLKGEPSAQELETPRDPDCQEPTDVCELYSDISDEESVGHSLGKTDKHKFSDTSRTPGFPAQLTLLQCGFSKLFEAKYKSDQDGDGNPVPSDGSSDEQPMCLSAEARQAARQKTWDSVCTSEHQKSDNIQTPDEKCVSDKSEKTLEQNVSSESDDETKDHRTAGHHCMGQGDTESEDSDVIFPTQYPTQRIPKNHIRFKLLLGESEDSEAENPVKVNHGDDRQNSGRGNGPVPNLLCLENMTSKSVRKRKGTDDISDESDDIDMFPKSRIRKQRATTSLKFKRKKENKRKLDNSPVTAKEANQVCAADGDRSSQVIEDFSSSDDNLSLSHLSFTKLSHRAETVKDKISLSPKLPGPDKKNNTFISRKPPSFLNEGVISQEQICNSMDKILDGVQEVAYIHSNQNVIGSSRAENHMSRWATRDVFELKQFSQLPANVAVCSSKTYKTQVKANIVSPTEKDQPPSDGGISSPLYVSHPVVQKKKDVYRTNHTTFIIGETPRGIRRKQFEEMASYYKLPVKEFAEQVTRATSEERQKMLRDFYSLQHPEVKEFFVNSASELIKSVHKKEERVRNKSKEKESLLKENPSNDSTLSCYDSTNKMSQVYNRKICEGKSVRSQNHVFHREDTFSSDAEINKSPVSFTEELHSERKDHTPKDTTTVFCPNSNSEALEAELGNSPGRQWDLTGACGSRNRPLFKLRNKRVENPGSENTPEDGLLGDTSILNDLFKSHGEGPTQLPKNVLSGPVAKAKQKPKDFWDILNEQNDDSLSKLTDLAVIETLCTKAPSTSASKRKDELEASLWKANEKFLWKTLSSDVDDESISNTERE

Biological target: TwinStrep-HA-ERCC6L2 (endogenously tagged) (mouse (endogenous in CH12-F3)) (UniProt Q9JIM3)
Test: affinity purification with mass spectrometry

binding: binds
B1: MRI/CYREN (endogenous) (protein, UniProt Q8BHZ5 1-157)
chain: METLKSKTKTRVLPSWMTAPVDERKVVSVKTATRKQTAAWAQRVGAATRAPATETVYCMNEAEMVDVALGILIEGRKQEKPWEQRSLEATDKLQLSPPCSSSPGSSSEEEDSRISSLAPGLSPPRGPEASDSPCSRSPEEEKEEEDALKYVREIFFS
